Source: patent US12655413B2, “Fragmented GRS polypeptide and variant thereof, and use thereof” (CUREBIO THERAPEUTICS, priority 2018, dated 2026)
Not every detail of the peptide structures is certain; ends, links or a residue may be inferred. Positions of bridges follow the written chain, without caps; N, C: chain ends. Residues, ends and D or L forms follow the SMILES beside them.

How the values were obtained:
[1] = system: SN12C (CDH6 positive) cells; assay: In vivo anticancer activity, intra-tumor injection, SN12C xenograft; parameters: species or system BALB/c nude mice; details: 20 μg into tumors on day 5 and 7; monitored 21 days; FIGS. 6b to 6d
Experimental: FIG. 6a is an experimental scheme for evaluating the ability of GRS, GRS-DP, and representative fragments derived therefrom (GRS-DP-B, or GRS-DP-A cyclic) to induce tumor regression in vivo by intra-tumor injection. Briefly, SN12C (CDH6 positive) cells were subcutaneously injected into BALB/c nude mice and then grown for 5 days to an average tumor size of 100 mm^3. On day 5 and 7, PBS or test materials were each injected at a dose of 20 μg into tumors (n=5 animals/group). Tumor volumes were calculated according to “maximum diameter×minimum diameter^2×0.52”.
Experimental procedures of an assay for in vivo anticancer activity are schematically represented in FIG. 6a. Briefly, 1×10^7 SN12C (CDH6 positive) cells were subcutaneously injected to the right flank of female BALB/c 8 weeks old (Dooyeol Biotech Co. Ltd, Seocho-gu, Seoul) and then grown for 5 days to an average tumor size of 100 mm^3. On day 5 and 7, PBS (control) or test materials (including a control) were each injected at a dose of 20 μg into tumors (n=5 animals/group). After monitoring the tumors for 21 days, the mice were sacrificed on day 21 and the tumors were excised. Tumor volumes were calculated according to “maximum diameter×minimum diameter^2×0.52”.

[2] = system: SN12C (CDH6 positive renal cancer cell); assay: Comparison of in vitro cancer cell apoptotic activity among the polypeptides (FIG. 2); type: cell-based; details: 1 μg or 2 μg of polypeptide
Experimental: The polypeptide fragments were assayed for cancer cell apoptotic activity. Concrete experiment procedures were as follows: H460, HCT116, MCF7, HeLa, SN12C or RENCA cells were each seeded at a density 5,000 cells/mL into 96-well plates (Corning, New York, USA) and incubated for 24 hours with 100 nM of each of the polypeptide fragments and the full-length GRS protein. Then, each sample was treated for 2 hours with 10 μl of CCK8 reagent (Dojindo Molecular Technologies Inc. Kumamoto, Japan) before absorbance was read at 570 nm on a microplate reader (TECAN, Mannedorf, Swiss).
Comparison was made of cancer cell apoptotic activity among the polypeptide constructs of Examples 1-1 and 1-2. Each polypeptide was used in an amount of 1 μg or 2 μg, and the assay was performed in the same manner as in Example 1-1.

[3] = system: SN12C (CDH6 positive) cells; assay: In vivo anticancer activity, intravenous injection, SN12C xenograft; parameters: species or system BALB/c nude mice; details: 5 MPK intravenously on day 5 and 7; monitored 21 days; FIGS. 7a to 7c
Excerpt: FIG. 7a is an image of tumors excised from experimental animals in each test group sacrificed on day 21 after xenotransplantation of tumor cells, showing results of evaluating the ability of GRS, GRS-DP, and representative fragments derived therefrom (GRS-DP-B, or GRS-DP-A cyclic) to induce tumor regression in vivo by intravenous injection. Briefly, SN12C (CDH6 positive) cells were subcutaneously injected into BALB/c nude mice and then grown for 5 days to an average tumor size of 100 mm^3. On day 5 and 7, PBS or test materials were each intravenously injected at a dose of 5 MPK (n=5 animals/group). Tumor volumes were calculated according to “maximum diameter×minimum diameter^2×0.52”.
Experimental procedures of an assay for in vivo anticancer activity are schematically represented in FIG. 6a. Briefly, 1×10^7 SN12C (CDH6 positive) cells were subcutaneously injected to the right flank of female BALB/c 8 weeks old (Dooyeol Biotech Co. Ltd, Seocho-gu, Seoul) and then grown for 5 days to an average tumor size of 100 mm^3. On day 5 and 7, PBS (control) or test materials (including a control) were each intravenously injected at a dose of 5 MPK (n=5 animals/group). After monitoring the tumors for 21 days, the mice were sacrificed on day 21 and the tumors were excised. Tumor volumes were calculated according to “maximum diameter×minimum diameter^2×0.52”.

CC(C)[C@@H]1NC(=O)[C@H](Cc2c[nH]cn2)NC(=O)[C@H](Cc2ccccc2)NC(=O)[C@H]([C@@H](C)O)NC(=O)[C@H](Cc2c[nH]cn2)NC(=O)[C@H](CCC(=O)O)NC(=O)[C@H](Cc2ccccc2)NC(=O)[C@H](C(C)C)NC(=O)[C@H]([C@@H](C)O)NC(=O)[C@H](Cc2ccc(O)cc2)NC(=O)[C@@H](N)CSSC[C@@H](C(=O)O)NC(=O)[C@@H]2CCCN2C(=O)[C@H](Cc2ccccc2)NC(=O)[C@H](CO)NC(=O)[C@H](Cc2ccccc2)NC(=O)[C@H](Cc2ccccc2)NC(=O)[C@H]([C@@H](C)O)NC(=O)[C@H](CCCNC(=N)N)NC(=O)[C@H](CCC(N)=O)NC(=O)[C@H](CCC(=O)O)NC(=O)[C@H](CC(=O)O)NC(=O)CNC(=O)[C@H](CCC(=O)O)NC(=O)[C@H](CCCNC(=N)N)NC1=O [GRS-DP-A cyclic] (H-CYTVFEHTFHVREGDEQRTFFSFPC-OH; disulfide 1-25 (inferred); N-terminus and C-terminus assumed)
sizes (volumes) and weights of tumors [1]: significant anticancer effect in vivo
anticancer cell apoptotic effect compared with origin peptide [2]: superior to its origin peptide GRS-DP-A
cancer cell apoptotic effect [2]: remarkably
sizes (volumes) and weights of tumors [3]: significant level of anticancer effect in vivo
